Results from US20240366776A1 (Hoffmann-La Roche, published 2024).
Numbering of substitutions follows the chain as printed. No constants are given. Whether binding was seen depends on the method and setting. Some entries that bind do so weakly or less than the wild type.

Chains of the proteins cited; added tags and fusions are not shown. Residues count along the entry.
UniProt P60568, residues 21-153: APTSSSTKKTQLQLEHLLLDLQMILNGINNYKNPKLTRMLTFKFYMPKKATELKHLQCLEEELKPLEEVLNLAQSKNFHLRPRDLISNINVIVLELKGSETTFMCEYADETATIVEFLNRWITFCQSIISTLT
UniProt Q15116, residues 25-167: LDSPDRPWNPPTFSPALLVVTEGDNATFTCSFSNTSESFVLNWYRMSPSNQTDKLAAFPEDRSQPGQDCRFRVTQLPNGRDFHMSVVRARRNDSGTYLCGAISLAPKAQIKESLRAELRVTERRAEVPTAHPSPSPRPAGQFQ

B1: AB002293_2B07v2 scFv (AF003676) (scFv)
scFv: MSTSTQVQLVQSGAEVKKPGASVKVSCKASGDTFTRYYVHWVRQAPGQGLEWMGIINPSGGYASYAQKFQGRVTMTRDTSTSTVYMELSSLRSEDTAVYYCAAGLFIWGQGTLVTVSSASGGGGSGGGGSGGGGSHASDIQMTQSPSSLSASVGDRVTITCRASQSIGRWLAWYQQKPGKAPKLLIYSASNLETGVPSRFSGSGSGTDFTLTISSLQPEDFATYYCQQYNSFPVTFGPGTKVDIKAAAGSGSEQKLISEEDLGKPIPNPLLGLDST
B2: AB002353_2B07v9 scFv (AF003736) (scFv)
scFv: B1 scFv with N230E
B3: AB002348_2B07v8 scFv (AF003731) (scFv)
scFv: B1 scFv with W170Y, S188Y
B4: AB002345_2B07v6 scFv (AF003728) (scFv)
scFv: B1 scFv with W170Y
B5: AB002342_2B07v5 scFv (AF003725) (scFv)
scFv: B1 scFv with N230E, S231R
B6: AB002347_2B07v7 scFv (AF003730) (scFv)
scFv: B1 scFv with W170Y, S231R
B7: AB002326_2B07v3 scFv (AF003709) (scFv)
scFv: B1 scFv with R169S
B8: AB002365_7A04v2 scFv (AF005095) (scFv, V domains shown)
VH: QVQLVQSGAEVKKPGASVKVSCKASGYTFTRYYMHWVRQAPGQGLEWMGIINPRAGYTSYALKFQGRVTMTRDTSTSTVYMELSSLRSEDTAVYYCTSGWDVWGQGTLVTVSS
VL: DIQMTQSPSSLSASVGDRVTITCRASQSISTWLAWYQQKPGKAPKLLIYAASSLDSGVPSRFSGSGSGTDFTLTISSLQPEDFATYYCQQSYSFPVTFGQGTKVEIK
B9: AB002022_2B07v1 scFv (AF002829) (scFv)
scFv: MSTSTEQKLISEEDLQVQLVQSGAEVKKPGASVKVSCKASGDTFTRHYVHWVRQAPGQGLEWMGIINPSGGYASYAQKFQGRVTMTRDTSTSTVYMELSSLRSEDTAVYYCAAGLFIWGQGTLVTVSSASGGGGSGGGGSGGGGSHASDIQMTQSPSSLSASVGDRVTITCRASQSIGRWLAWYQQKPGKAPKLLIYSASNLETGVPSRFSGSGSGTDFTLTISSLQPEDFATYYCQQYESFPVTFGPGTKVDIKGKPIPNPLLGLDST
B10: AB003007_7A04v6 scFv (AF005087) (scFv)
scFv: MSTSTQVQLVQSGAEVKKPGASVKVSCKASGYTFTRYYMHWVRQAPGQGLEWMGIINPRAGYTSYALKFQGRVTMTRDTSTSTVYMELSSLRSEDTAVYYCTSGWEVWGQGTLVTVSSGGGGSGGGGSGGGGSGGGGSDIQMTQSPSSLSASVGDRVTITCRASQSISTWLAWYQQKPGKAPKLLIYAASSLDEGVPSRFSGSGSGTDFTLTISSLQPEDFATYYCQQSYSFPVTFGQGTKVEIKEQKLISEEDLGSGLNDIFEAQKIEWHEGKPIPNPLLGLDST
B11: AB003021_2A11v7 scFv (AF005103) (scFv)
scFv: MSTSTQVQLVQSGAEVKKPGASVKVSCKASGFTFTRYYMHWVRQAPGQGLEWMGVINPSGGYATYAQKFQGRVTMTRDTSTSTVYMELSSLRSEDTAVYYCASGWDVWGQGTLVTVSSGGGGSGGGGSGGGGSGGGGSDIQMTQSPSSLSASVGDRVTITCRASQSISSWLAWYQQKPGKAPKLLIYATSTLESGVPSRFSGSGSGTDFTLTISSLQPEDFATYYCQQSYSSPVTFGQGTKVEIKEQKLISEEDLGSGLNDIFEAQKIEWHEGKPIPNPLLGLDST
B12: AB002328_2B07v4 scFv (AF003711) (scFv, V domains shown)
VH: QVQLVQSGAEVKKPGASVKVSCKASGDTFTRYYVHWVRQAPGQGLEWMGIINPSGGYASYAQKFQGRVTMTRDTSTSTVYMELSSLRSEDTAVYYCAAGLFIWGQGTLVTVSS
VL: DIQMTQSPSSLSASVGDRVTITCRASQSIGRWLAWYQQKPGKAPKLLIYSASNLETGVPSRFSGSGSGTDFTLTISSLQPEDFATYYCQQYNRFPVTFGPGTKVDIK
B13: AB002328_2B07v4 scFv (AF005041) (scFv, V domains shown)
VH: B12 VH
VL: B12 VL
B14: AB002427_2A11v5 scFv (AF005149) (scFv, V domains shown)
VH: B12 VH with D27H, V34M, S59T, A98S
VL: B8 VL with S30N, T31S, A51T, S53T, D55E, S93R
B15: AB002413_2A11v3 scFv (AF005147) (scFv, V domains shown)
VH: B12 VH with D27H, V34M, S59T, A98S
VL: B8 VL with S30N, T31S, A51T, S53T, D55E, S91Y, S93R
B16: AB002417_2A11v4 scFv (AF005148) (scFv, V domains shown)
VH: B12 VH with D27H, V34M, S59T, A98S
VL: B8 VL with S30N, T31S, A51T, S53T, D55E, S91Y
B17: AB003155_2B07v10 scFv (AF005042) (scFv)
scFv: MSTSTQVQLVQSGAEVKKPGASVKVSCKASGETFTRYYVHWVRQAPGQGLEWMGIINPSGGYASYAQKFQGRVTMTRDTSTSTVYMELSSLRSEDTAVYYCAAGLFIWGQGTLVTVSSGGGGSGGGGSGGGGSGGGGSDIQMTQSPSSLSASVGDRVTITCRASQSIGRWLAWYQQKPGKAPKLLIYSASNLETGVPSRFSGSGSGTDFTLTISSLQPEDFATYYCQQYNRFPVTFGPGTKVDIKEQKLISEEDLGSGLNDIFEAQKIEWHEGKPIPNPLLGLDST
B18: AB003183_2B07v14 scFv (AF005071) (scFv)
scFv: B17 scFv with E32D, T33E, I56Q, W170E, S188D
B19: AB003174_2B07v11 scFv (AF005062) (scFv)
scFv: B17 scFv with E32D, W170E
B20: AB003178_2B07v12 scFv (AF005066) (scFv)
scFv: B17 scFv with E32D, T33E
B21: AB003180_2B07v13 scFv (AF005068) (scFv)
scFv: B17 scFv with E32D, T33E, I56Q
B22: AB003200_2B05v1 scFv (AF005131) (scFv)
scFv: MSTSTQVQLVQSGAEVKKPGASVKVSCKASGETFTNYYIHWVRQAPGQGLEWMGVINPRAGYTSYALKFQGRVTMTRDTSTSTVYMELSSLRSEDTAVYYCAGGWEDWGQGTLVTVSSGGGGSGGGGSGGGGSGGGGSDIQMTQSPSSLSASVGDRVTITCRISQSISSWLAWYQQKPGKAPKLLIYSASSLQSGVPSRFSGSGSGTDFTLTISSLQPEDFATYYCQQSFTSPITFGQGTRLEIKEQKLISEEDLGSGLNDIFEAQKIEWHEGKPIPNPLLGLDST
B23: AB003201_2B05v2 scFv (AF005132) (scFv)
scFv: B22 scFv with E32G, V55I, N57D
B24: AB003209_2B05v4 scFv (AF005140) (scFv)
scFv: B22 scFv with V55I, N57D, W170F
B25: AB003202_2B05v3 scFv (AF005133) (scFv)
scFv: B22 scFv with E32S, V55I, N57D, W170F

target: IL2 (R&D, 202-IL) (UniProt P60568); experiment: ELISA

binding, binds:
B1, B2, B3, B4, B5, B6, B7, B8, B9, B10, B11, B12, B13, B14, B15, B16, B17, B18, B19, B20, B21

target: biotinylated recombinant PD1 (PD1-HisAvi, Acro Biosystems PD1-H82E4) (UniProt Q15116); experiment: ELISA

binding, binds:
B1, B2, B3, B4, B5, B6, B7, B8, B9, B10, B22, B23, B24, B25, B11, B12, B13, B14, B15, B16, B17, B18, B19, B20, B21
